Values of other authors in patent US20110294730A1, “METHOD OF TREATING GLAUCOMA AND INTRAOCULAR HYPERTENSION” (priority 2010, published 2011).
Some entries share one result that the patent states for a list of compounds.

Conditions: topical; cited from earlier work

CCN[C@H]1C[C@H](C)S(=O)(=O)c2sc(S(N)(=O)=O)cc21 [dorzolamide]
bitter taste, share of patients: up to 25%
